The record followed here is patent US8076285B2 (Aicuris GmbH & Co. KG, priority 2006, dated 2011).

The nature of the series: general procedure: Fmoc solid-phase peptide synthesis; 2-chlorotrityl chloride resin (Iris Biotech), 0.85 mmol/g; TBTU/DIEA. The note with it: trifluoroacetate.

In the case of “[(3R)-N^2-(Benzyloxycarbonyl)-3-amino-L-phenylalanyl]-[(3R)-3-hydroxy-L-leucyl]-L-leucyl-D-arginyl-L-isoleucyl-L-allothreonyl-glycyl-glycyl-L-serine C^1.9-N^3.1-lactam trifluoroacetate”, the cyclisation yield (cyclisation step, from 380A) is on record as 38% of theory. For the same substance, under “cyclisation step”, the “final purity (method not given)” value was determined as 25% pure.

“[(3R)-N^2-(Benzyloxycarbonyl)-3-{(tert-butoxycarbonyl)amino}-L-phenylalanyl]-[(3R)-3-hydroxy-L-leucyl]-L-leucyl-D-arginyl-L-isoleucyl-L-allothreonyl-glycyl-[(3S)-3-hydroxy-L-asparaginyl]-L-alanine trifluoroacetate”: the step yield (coupling step) was 34% of theory.

With “[3-tert-Butyl-D-alanyl]-[3-tert-butyl-L-alanyl]-[(3R)-3-amino-L-phenylalanyl]-L-threonyl-L-leucyl-D-arginyl-L-isoleucyl-L-allothreonyl-glycyl-L-serine C^1.11-N^3.3-lactam”, for the setting “late stage modification step, from compound 433A”, the step yield was 17% of theory.

For “[(3R)-N^2-(Benzyloxycarbonyl)-3-amino-L-phenylalanyl]-[(3R)-3-hydroxy-L-leucyl]-L-leucyl-D-arginyl-L-leucyl-L-allothreonyl-glycyl-L-seryl-L-serine bistrifluoroacetate”, the “crude purity (method not given)” value (late stage modification step) is 70% pure. Turning to “[3-Trimethylsilyl-D-alanyl]-[3-(3-pyridyl)-L-alanyl]-[(3R)-3-amino-L-phenylalanyl]-[(3R)-3-hydroxy-L-leucyl]-L-norvalyl-D-arginyl-L-isoleucyl-L-allothreonyl-glycyl-L-alanyl-L-serine C^1.11-N^3.3-lactam”, the step yield (late stage modification step, from compound 457A) is on record as 68% of theory. Turning to “[(3R)-N^2-(Benzyloxycarbonyl)-3-{(tert-butoxycarbonyl)amino}-L-leucyl]-[(3R)-3-hydroxy-L-leucyl]-L-leucyl-D-arginyl-L-isoleucyl-L-allothreonyl-glycyl-[(3R)-3-hydroxy-L-asparaginyl]-L-serine trifluoroacetate”, the step yield (coupling step) is recorded as 94% of theory. Turning to “[(3R)-N^2-(Benzyloxycarbonyl)-3-amino-L-leucyl]-[(3R)-3-hydroxy-L-leucyl]-L-leucyl-D-arginyl-L-isoleucyl-L-allothreonyl-glycyl-[(3R)-3-hydroxy-L-asparaginyl]-L-serine bistrifluoroacetate”, the “crude purity (method not given)” value (late stage modification step) worked out at 96% pure. In the case of “Benzyl [(3R)-N^2-(tert-butoxycarbonyl)-3-hydroxy-L-leucyl]-L-leucyl-D-arginyl-L-isoleucyl-L-allothreonyl-glycyl-L-allothreonyl-L-serinate trifluoroacetate”, the step yield (coupling step) was 93% of theory.

On to “[(3R)-N^2-(Benzyloxycarbonyl)-3-amino-L-phenylalanyl]-[(3R)-3-hydroxy-L-leucyl]-L-isoleucyl-D-arginyl-L-isoleucyl-L-allothreonyl-glycyl-L-seryl-L-serine bistrifluoroacetate”, for which, for the setting “late stage modification step”, the step yield is given as 96% of theory. As to “[(3R)-3-Amino-L-phenylalanyl]-[(3R)-3-hydroxy-L-leucyl]-L-norvalyl-D-arginyl-L-isoleucyl-L-allothreonyl-glycyl-L-seryl-L-serine C^1.9-N^3.1-lactam bistrifluoroacetate”, for the setting “late stage modification step, of theory from 395A”, the step yield was 68% of theory. Take “[3-tert-Butyl-D-alanyl]-[3-tert-butyl-L-alanyl]-[(3R)-3-amino-L-phenylalanyl]-[(3R)-3-hydroxy-L-leucyl]-L-leucyl-D-arginyl-L-isoleucyl-L-allothreonyl-glycyl-L-asparaginyl-L-serine-C^1.11-N^3.3-lactam-bis-trifluoroacetate”: the step yield (late stage modification step) is recorded as 3.5% of theory. On the same count and under the same terms, as for “[(3R)-N^2-(Benzyloxycarbonyl)-3-amino-L-phenylalanyl]-L-threonyl-L-leucyl-D-arginyl-L-isoleucyl-L-allothreonyl-glycyl-L-seryl-L-serine bistrifluoroacetate”, the figure is 99% of theory.
